Results are given in words; binding and its absence hold for the method and conditions named. Where a sequence is shown, tags or fusion partners need not be part of it.
Target: trypsin (serine protease)
Test: phage ELISA, trypsin coated in well, anti-M13/HRP detection

B1: phage displaying the OV7 protease inhibitor (OV7 from Onchocerca volvulus expressed on the surface of filamentous phage as a fusion to the gene 3 phage coat … (protein)
chain: AKNPSKMESKTGENQDRPVLLGGWEDRDPKDEEILELLPSILMKVNEQSNDEYHLMPIKLLKVSSQVVAGVKYKMDVQVARSQCKKSSNEKVDLTKCKKLEGHPEKVMTLEVWEKPWENFMRVEILGTKEV
**Q.** Which binding does the source give for B1 here?
**A.** no binding (tested: Phage Diluted 1 in 100)
